Values quoted from earlier work in US20050095196A1, “Method for using potassium channel agonists for delivering a medicant to an abnormal brain region and/or a malignant tumor” (priority 2003, published 2005).
At least one compound was matched to its structure with a doubt left. No end group written: not given here.

Tested on: brain tumor and ischemic brain capillaries
Details: cited from earlier work

Question: Which results are given for “RPPGFSPFR [bradykinin, Arg-Pro-Pro-Gly-Phe-Ser-Pro-Phe-Arg]”?
Answer: permeability in the normal blood brain barrier (except at very high doses): does not increase permeability; duration of opening of the blood-tumor barrier (in vivo): 15 to 20 min; time capillaries are refractory to the bradykinin effect after opening (in vivo): up to 60 minutes; increase of permeability in brain tumor and ischemic brain capillaries (intracarotid infusion, molecules of 100 to 70,000 Daltons): 2- to 12 fold
